Laboratory results reported in PMC9262616.
Results are given in words; binding and its absence hold for the method and conditions named. In cells and extracts the contact can be indirect. Some entries that bind do so weakly or less than the wild type.

Amino acid sequences for entries named in this document (tags omitted). A change or cut given only in a name is not applied to a line headed by its entry. Chains listed by the source or under a name are the forms on record and can include a tag or linker. Residues count along the entry.
UniProt Q9UPY3: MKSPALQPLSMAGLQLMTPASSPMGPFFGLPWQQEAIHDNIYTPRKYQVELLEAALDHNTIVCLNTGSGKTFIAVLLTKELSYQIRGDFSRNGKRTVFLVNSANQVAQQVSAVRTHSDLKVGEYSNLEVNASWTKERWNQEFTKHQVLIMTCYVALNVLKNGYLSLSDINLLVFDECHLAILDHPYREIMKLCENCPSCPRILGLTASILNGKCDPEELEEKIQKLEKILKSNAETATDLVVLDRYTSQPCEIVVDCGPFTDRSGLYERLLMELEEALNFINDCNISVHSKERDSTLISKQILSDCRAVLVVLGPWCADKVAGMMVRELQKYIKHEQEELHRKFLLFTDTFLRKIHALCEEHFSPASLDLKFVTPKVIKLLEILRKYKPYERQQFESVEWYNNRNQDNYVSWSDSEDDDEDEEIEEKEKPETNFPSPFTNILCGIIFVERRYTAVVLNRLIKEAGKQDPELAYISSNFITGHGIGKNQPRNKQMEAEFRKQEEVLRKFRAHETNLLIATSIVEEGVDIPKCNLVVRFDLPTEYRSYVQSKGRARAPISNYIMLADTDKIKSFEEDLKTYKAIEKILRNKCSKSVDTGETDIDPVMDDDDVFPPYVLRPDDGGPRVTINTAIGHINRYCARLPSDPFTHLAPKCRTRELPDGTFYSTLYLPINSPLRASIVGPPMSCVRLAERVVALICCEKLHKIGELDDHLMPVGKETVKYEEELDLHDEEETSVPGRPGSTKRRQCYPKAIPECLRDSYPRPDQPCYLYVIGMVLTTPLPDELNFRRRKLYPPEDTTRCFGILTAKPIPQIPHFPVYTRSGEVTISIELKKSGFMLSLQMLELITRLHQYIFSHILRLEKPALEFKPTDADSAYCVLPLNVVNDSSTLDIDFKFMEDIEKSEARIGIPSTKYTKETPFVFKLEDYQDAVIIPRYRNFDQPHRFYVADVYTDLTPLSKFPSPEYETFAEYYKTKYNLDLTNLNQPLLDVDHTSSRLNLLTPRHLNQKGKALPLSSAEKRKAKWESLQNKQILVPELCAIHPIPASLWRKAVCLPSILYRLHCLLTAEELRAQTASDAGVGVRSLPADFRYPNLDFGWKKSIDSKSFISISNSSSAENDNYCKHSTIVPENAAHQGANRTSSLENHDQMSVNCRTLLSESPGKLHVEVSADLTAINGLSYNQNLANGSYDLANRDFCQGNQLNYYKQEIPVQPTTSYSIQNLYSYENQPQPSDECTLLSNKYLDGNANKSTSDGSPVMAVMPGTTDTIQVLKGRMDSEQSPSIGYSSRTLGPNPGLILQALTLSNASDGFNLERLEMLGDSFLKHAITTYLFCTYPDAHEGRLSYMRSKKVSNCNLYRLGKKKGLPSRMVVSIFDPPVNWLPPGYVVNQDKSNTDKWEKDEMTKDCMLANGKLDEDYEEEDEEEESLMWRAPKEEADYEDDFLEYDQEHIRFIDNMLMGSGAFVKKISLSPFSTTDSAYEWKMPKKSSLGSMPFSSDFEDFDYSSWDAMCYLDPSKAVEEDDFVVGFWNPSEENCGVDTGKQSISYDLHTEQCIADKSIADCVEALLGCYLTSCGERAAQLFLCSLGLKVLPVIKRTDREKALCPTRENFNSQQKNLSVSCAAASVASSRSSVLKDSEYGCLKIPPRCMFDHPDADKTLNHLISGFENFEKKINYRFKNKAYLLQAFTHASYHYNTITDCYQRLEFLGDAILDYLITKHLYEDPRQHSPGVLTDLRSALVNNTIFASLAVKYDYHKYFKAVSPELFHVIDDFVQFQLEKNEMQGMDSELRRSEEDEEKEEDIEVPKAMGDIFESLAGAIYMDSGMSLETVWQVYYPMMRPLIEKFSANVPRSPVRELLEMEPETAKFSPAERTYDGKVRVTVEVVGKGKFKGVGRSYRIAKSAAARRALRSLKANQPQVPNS
UniProt O95433: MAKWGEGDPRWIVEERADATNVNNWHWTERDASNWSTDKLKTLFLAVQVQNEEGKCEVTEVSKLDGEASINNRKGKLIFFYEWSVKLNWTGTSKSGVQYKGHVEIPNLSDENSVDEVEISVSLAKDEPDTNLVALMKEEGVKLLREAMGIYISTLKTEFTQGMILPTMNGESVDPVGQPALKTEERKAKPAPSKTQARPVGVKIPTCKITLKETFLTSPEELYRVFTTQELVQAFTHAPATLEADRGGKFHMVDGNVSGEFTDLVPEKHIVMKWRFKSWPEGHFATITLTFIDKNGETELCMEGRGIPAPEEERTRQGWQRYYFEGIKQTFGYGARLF
Flag-tagged Aha1-Δ20 (first 20 amino acids deleted): residues 21-338 of O95433

Key:
[1] = target: Flag-Dicer1 (pCAGGS-Flag-hsDicer1) (human) (UniProt Q9UPY3); test: co-IP; maturation-dependent interaction assay: HEK293T cells transfected with Flag-Dicer1 for 24 h, treated with CHX to block de novo protein synthesis, harvested at time points; western blot for Flag, HSP90 and Aha1
[2] = target: Dicer1, endogenous (human (endogenous in HEK293T)) (UniProt Q9UPY3); test: co-IP; endogenous proteins of HEK293T lysate, precleared; reciprocal immunoprecipitation with antibodies to Dicer1 and Aha1 (4 μg), 4°C overnight, Protein A/G agarose; western blot
[3] = target: Flag-tagged wild-type Aha1 (human) (UniProt O95433); test: co-IP; HEK293T cells transfected with Flag-tagged Aha1 plasmids (wild type, E67K, Δ20) for 24 h; anti-Flag M2 beads, 4°C overnight; western blot
[4] = target: Flag-tagged Aha1-Δ20 (first 20 amino acids deleted) (human) (UniProt O95433); test: as above
[5] = target: Flag-tagged Aha1-E67K (human) (UniProt O95433); test: as above
[6] = target: Aha1, endogenous (human (endogenous in HEK293T)) (UniProt O95433); test: co-IP; endogenous proteins of HEK293T lysate, precleared; reciprocal immunoprecipitation with antibodies to Dicer1 and Aha1 (4 μg), 4°C overnight, Protein A/G agarose; western blot

Measured: binding

Aha1, endogenous (from UniProt O95433 1-338)
binds: [1] | [2]

Dicer1, endogenous (from UniProt Q9UPY3 1-1922)
binds: [3] | [4] | [5] | [6]
